The values below come from paper PMC8118655.

Results are given in words; binding and its absence hold for the method and conditions named. In cells and extracts the contact can be indirect. Some entries that bind do so weakly or less than the wild type.

This test addresses T1, ubiquitin domain-containing protein 1 (UBTD1) (human (endogenous in DU145)) (UniProt Q9HAC8).
T1 sequence: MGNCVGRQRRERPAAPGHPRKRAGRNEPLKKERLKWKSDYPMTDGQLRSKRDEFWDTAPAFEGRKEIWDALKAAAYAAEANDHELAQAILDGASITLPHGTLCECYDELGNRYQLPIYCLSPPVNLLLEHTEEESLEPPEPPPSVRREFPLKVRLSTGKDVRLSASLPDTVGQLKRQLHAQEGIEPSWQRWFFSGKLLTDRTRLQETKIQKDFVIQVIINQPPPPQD
The test can be described thus: co-IP; endogenous proteins, DU145 lysate in NP-40 buffer; UBTD1 as bait, Dynabeads protein A, 4°C; western blot; IgG isotype as negative control. (In general: A western blot detects proteins with antibodies after separation by electrophoresis.)

Take “Sequestosome 1 (SQSTM1/p62) (from UniProt Q13501 1-440)”: the binding entry is “binds”.
